Some of these results come from one statement about several compounds together.
Tested on: H9 ESCs
Assay: Live staining of H9 ESCs cultured on MEF feeders with alkaline phosphatase substrates
Assay type: cell-based, human
Description: Here, two test alkaline phosphate substrates, Fluorescein diphosphate-AM ester (FDP-AM) and DDAOP-AM ester were tested for live staining on pluripotent stem cells like H9 ESCs cultured on MEF (mouse embryonic fibroblast) feeder cells. H9 ESCs and other stem cells expressed high alkaline phosphatase. Negative control cells were MEFs and human dermal fibroblasts which express far lower levels of alkaline phosphatase.
A 10 mM substrate master stock solution (1000×) of fluorescein diphosphate-AM ester (FDP-AM) or DDAOP-AM was prepared (for FDP-AM for e.g., by adding 512.5 μL of tissue culture grade DMSO to 4 mg of the compound (MW: 780.52)).
Then, 100 μL of 10 mM FDP-AM or DDAOP-AM solution was diluted into 900 μL of DMEM to make 1 mM working stock; or 10 μM working stock was prepared by diluting 10 μl to 10 ml with 100 mM Tris-HCl pH 8.2 or DMEM basal media; or 1 μM working stock was prepared by diluting 10 μL of 1 mM working stock in 10 ml of DMEM, which was used.
The AP (alkaline phosphatase) live compound with concentrations ranging: >1 μM, 5 μM, 10 μM, 50 μM, 100 μM, and 200 μM, was made by adding 1, 5, 10, 50, 100 and 200 μL of 1 mM FDP-AM or DDAOP-AM working stock. […]
Incubation times were then determined, beginning with 90 seconds. Where no FITC expression was detected, expression was continued for up to 30 minutes. […]

Row | SMILES | final concentration of the substrate on the cells [µM]
1 | CC(=O)OCOP(=O)(OCOC(C)=O)Oc1ccc2c(c1)Oc1cc(OP(=O)(OCOC(C)=O)OCOC(C)=O)ccc1C21OC(=O)c2ccccc21 [FDP-AM, Fluorescein diphosphate-AM ester] | 0.05 to 0.2
2 | CC(=O)OCOP(=O)(OCOC(C)=O)Oc1ccc2c(c1)C(C)(C)C1=C(Cl)C(=O)C(Cl)=CC1=N2 [DDAOP-AM, DDAO phosphate-AM ester] | 50 to 200

Reference: patent publication US9334523B2, “Substrates and methods for staining live stem cells” (LIFE TECHNOLOGIES CORPORATION, priority 2011, dated 2016)
